Data reported in PMC4028237, “GmFT2a and GmFT5a Redundantly and Differentially Regulate Flowering through Interaction with and Upregulation of the bZIP Transcription Factor GmFDL19 in Soybean”.
For at least one entry, the source does not settle the construct or the ends of the probe. At least one verdict rests on a figure or table, not on a statement of the authors. Protein sequences can lack the tags named with them.

biological target: T1, GmFDL19 (Glycine max) (UniProt I1N8K2); test: EMSA; details: Invitrogen EMSA kit E33075, 6% native TBE polyacrylamide gel, 200 V 45 min, SYBR Green stain; binding buffer, pH and temperature not stated; recombinant …; protein details: His (pET29b, NdeI/SalI); label: none (SYBR Green stain)
T1 sequence (looked up, limits assumed): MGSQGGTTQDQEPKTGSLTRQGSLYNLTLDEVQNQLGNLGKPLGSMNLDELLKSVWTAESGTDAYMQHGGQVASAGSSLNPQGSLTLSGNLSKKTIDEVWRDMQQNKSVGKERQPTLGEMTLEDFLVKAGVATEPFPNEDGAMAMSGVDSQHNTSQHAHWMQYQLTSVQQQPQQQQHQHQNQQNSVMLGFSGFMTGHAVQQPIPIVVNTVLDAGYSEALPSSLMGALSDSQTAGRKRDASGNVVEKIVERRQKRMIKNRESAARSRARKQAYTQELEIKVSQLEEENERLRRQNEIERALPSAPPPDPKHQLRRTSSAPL

**Q.** Does “AACACCTCCTACGTCCATGATATTGCAGCGACCTAAAAAA (double strand) [GmAP1aP-911 A/C box]” bind?
**A.** binds

**Q.** Does “TCGTGGGTCGTGGCGCCGTCAACGTAAGGATGCACGTAAT (double strand) [GmAP1aP-2471 T/A box]” bind?
**A.** binds

**Q.** Does “GACCTAAAAAACAAACGTCGGAAGACGAACTTGTAGAAAG (double strand) [GmAP1aP-944 T/C box]” bind?
**A.** binds

**Q.** Does “GATCGACAGCGCAACGTTAAGAAAACTACCCCGGTTTTTC (double strand) [GmAP1aP-2703 T-box]” bind?
**A.** binds

**Q.** Does “GGCGCCGTCAACGTAAGGATGCACGTAATGTTCTGGTTCA (double strand) [GmAP1aP-2483 G/A box]” bind?
**A.** binds

**Q.** Does “CGCGTGTACGCGTACCACGTATCCCAATTCCATAAGAAAT (double strand) [GmAP1aP-1876 G/A box]” bind?
**A.** binds

**Q.** Does “CCAAAAAATCAAACGTTTAGGTAAAAACCCAAATGATCTA (double strand) [GmAP1aP-732 T-box]” bind?
**A.** binds
